Reference: the supplement of paper PMC10331698
± gives the standard deviation of the averaged measurements. Most entries show no effect beyond the scatter of the controls.

Key:
Test in all cases: level (log10 ratio to DMSO vehicle control); higher = higher biomarker level / cell amount than vehicle control
Perfluoroundecanoic acid = compound: O=C(O)C(F)(F)C(F)(F)C(F)(F)C(F)(F)C(F)(F)C(F)(F)C(F)(F)C(F)(F)C(F)(F)C(F)(F)F [Perfluoroundecanoic acid]; conditions: in DMSO
Protocol: (§1)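 BioMAP Diversity Plus panel of 12 human primary cell co-culture systems (3C, 4H, LPS, SAg, BT, BF4T, BE3C, CASM3C, HDF3CGF, KF3CT, MyoF, Mphg). Compounds were added 1 h before stimulation and left for 24 h (MyoF 48 h; BT 72 h for soluble read-outs or 6 d for IgG). Biomarkers were read by ELISA, cytotoxicity by SRB, PBMC viability and proliferation by Alamar Blue. Each well value was divided by the mean of 8 DMSO control wells on the same plate and log10 transformed; duplicate blinded samples were tested at 4 concentrations.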

[1] = compound: C=C(C)C(=O)OCC(F)(F)C(F)(F)C(F)(F)F [2,2,3,3,4,4,4-Heptafluorobutyl methacrylate]; conditions: 2200 nM; in DMSO
Protocol: as §1

[2] = compound: O=C(O)C(F)(F)OC(F)(F)C(F)(F)OC(F)(F)C(F)(F)C(F)(F)C(F)(F)F [Perfluoro-3,6-dioxadecanoic acid]; conditions: 2200 nM; in DMSO
Protocol: as §1

[3] = compound: O=P(O)(O)CCC(F)(F)C(F)(F)C(F)(F)C(F)(F)C(F)(F)C(F)(F)C(F)(F)C(F)(F)F [((Perfluorooctyl)ethyl)phosphonic acid]; conditions: 2200 nM; in DMSO
Protocol: as §1

[4] = compound: O=C(O)C(F)(F)C(F)(F)OC(F)(F)F [Perfluoro-3-methoxypropanoic acid]; conditions: 2200 nM; in DMSO
Protocol: as §1

Perfluorobutanoic acid = compound: O=C(O)C(F)(F)C(F)(F)C(F)(F)F [Perfluorobutanoic acid]; conditions: 2200 nM; in DMSO
Protocol: as §1

[5] = compound: O=C(O)C(F)(F)C(F)(F)C(F)(F)C(F)(F)C(F)(F)C(F)(F)C(F)(F)C(F)F [9-H-Perfluorononanoic acid]; conditions: 2200 nM; in DMSO
Protocol: as §1

[6] = compound: OCCC(F)(F)C(F)(F)C(F)(F)C(F)(F)C(F)(F)C(F)(F)C(F)(F)C(F)(F)F [8:2 Fluorotelomer alcohol]; conditions: 2200 nM; in DMSO
Protocol: as §1

[7] = compound: FC(F)(F)C(F)(F)C(F)(F)C(F)(F)C(F)(F)C(F)(F)C(F)(F)I [1-Iodopentadecafluoroheptane]; conditions: in DMSO
Protocol: as §1

[8] = compound: O=C(O)C(F)(F)OC(F)(F)C(F)(F)OC(F)(F)C(=O)O [Perfluoro-3,6-dioxaoctane-1,8-dioic acid]; conditions: 2200 nM; in DMSO
Protocol: as §1

[9] = compound: O=S(=O)(Cl)C(F)(F)C(F)(F)C(F)(F)C(F)(F)C(F)(F)C(F)(F)C(F)(F)C(F)(F)F [Perfluoro-1-octanesulfonyl chloride]; conditions: 2200 nM; in DMSO
Protocol: as §1

[10] = compound: OCC(F)(F)C(F)(F)C(F)(F)C(F)(F)C(F)(F)C(F)(F)C(F)(F)C(F)(F)C(F)(F)C(F)(F)C(F)(F)F [11:1 Fluorotelomer alcohol]; conditions: in DMSO
Protocol: as §1

[11] = compound: C=CC(=O)OCC(F)(F)C(F)(F)C(F)(F)C(F)(F)COC(=O)C=C [1H,1H,6H,6H-Perfluorohexane-1,6-diol diacrylate]; conditions: 2200 nM; in DMSO
Protocol: as §1

Perfluoropropanoic acid = compound: O=C(O)C(F)(F)C(F)(F)F [Perfluoropropanoic acid]; conditions: 2200 nM; in DMSO
Protocol: as §1

[12] = compound: FC(F)C(F)(F)COCC1CO1 [((2,2,3,3-Tetrafluoropropoxy)methyl)oxirane]; conditions: 2200 nM; in DMSO
Protocol: as §1

[13] = compound: FC(F)(F)C(F)(F)C(F)(F)C(F)(F)C(F)(F)C(F)(F)C(F)(F)CCI [1-Iodo-1H,1H,2H,2H-perfluorononane]; conditions: in DMSO
Protocol: as §1

[14] = compound: O=C(O)C=CC(F)(C(F)(F)F)C(F)(F)F [3-(Perfluoroisopropyl)-2-propenoic acid]; conditions: in DMSO
Protocol: as §1

Perfluorooctanamide = compound: NC(=O)C(F)(F)C(F)(F)C(F)(F)C(F)(F)C(F)(F)C(F)(F)C(F)(F)F [Perfluorooctanamide]; conditions: 2200 nM; in DMSO
Protocol: as §1

Row | Test System | level (log10) (Perfluoroundecanoic acid; 740 nM) | level (log10) (Perfluoroundecanoic acid; 2200 nM) | level (log10) [1] | level (log10) [2] | level (log10) [3] | level (log10) [4] | level (log10) (Perfluorobutanoic acid) | level (log10) [5] | level (log10) [6] | level (log10) ([7]; 740 nM) | level (log10) ([7]; 2200 nM) | level (log10) ([7]; 6700 nM) | level (log10) ([7]; 20000 nM) | level (log10) [8] | level (log10) [9] | level (log10) ([10]; 370 nM) | level (log10) ([10]; 1100 nM) | level (log10) ([10]; 3300 nM) | level (log10) ([10]; 10000 nM) | level (log10) [11] | level (log10) (Perfluoropropanoic acid) | level (log10) [12] | level (log10) ([13]; 740 nM) | level (log10) ([13]; 2200 nM) | level (log10) ([13]; 6700 nM) | level (log10) ([13]; 20000 nM) | level (log10) ([14]; 2200 nM) | level (log10) ([14]; 6700 nM) | level (log10) ([14]; 20000 nM) | level (log10) ([14]; 60000 nM) | level (log10) (Perfluorooctanamide)
1 | 3C:CD106/VCAM-1 | -0.0135 ± 0.019 | -0.0105 ± 0.0021 | 0.0135 ± 0.04 | 0.004 ± 0.0057 | -0.001 ± 0.0014 | 0.009 ± 0.017 | -0.014 ± 0.0099 | -0.016 ± 0.03 | -0.0065 ± 0.057 | -0.004 ± 0.0042 | -0.0055 ± 0.021 | -0.0165 ± 0.016 | -0.005 ± 0.011 | 0.019 ± 0.017 | 0.0055 ± 0.0035 | -0.004 ± 0.0028 | 0.008 ± 0.016 | 0.007 | 0.022 ± 0.0099 | -0.0155 ± 0.0035 | -0.008 ± 0.011 | -0.002 ± 0.018 | -0.005 ± 0.0085 | -0.0215 ± 0.021 | -0.015 ± 0.014 | -0.0115 ± 0.0021 | 0.0085 ± 0.033 | -0.002 ± 0.03 | -0.039 ± 0.037 | -0.0205 ± 0.00071 | -0.0235 ± 0.0078
2 | lMphg:CD62E/E-Selectin | -0.0025 ± 0.0092 | 0.0035 ± 0.0021 | 0.001 ± 0.024 | 0.0025 ± 0.019 | -0.0065 ± 0.011 | -0.0065 ± 0.013 | 0.01 | -0.0105 ± 0.012 | 0.042 | 0.0135 ± 0.022 | -0.0155 ± 0.028 | 0.016 ± 0.014 | 0.0355 ± 0.0078 | 0.0125 ± 0.022 | -0.017 ± 0.0099 | 0.016 ± 0.0014 | 0.0715 ± 0.011 | 0.084 ± 0.024 | 0.118 ± 0.012 | -0.019 ± 0.018 | 0.0075 ± 0.018 | 0.013 ± 0.025 | 0.0155 ± 0.0078 | 0.0105 ± 0.00071 | 0.016 ± 0.02 | 0.001 ± 0.0099 | 0.0055 ± 0.018 | -0.0045 ± 0.012 | -0.002 ± 0.0099 | 0.0205 ± 0.0035 | 0.029 ± 0.048
3 | 4H:CD87/uPAR | 0.017 ± 0.018 | -0.0025 ± 0.011 | 0.014 ± 0.083 | -0.009 ± 0.0042 | 0.042 ± 0.055 | -0.0255 ± 0.016 | -0.014 ± 0.051 | 0.0095 ± 0.011 | -0.047 ± 0.041 | 0.026 ± 0.057 | -0.0025 ± 0.049 | -0.013 ± 0.023 | 0.0035 ± 0.012 | 0.011 ± 0.0028 | -0.023 ± 0.054 | -0.008 ± 0.0057 | -0.0285 ± 0.037 | -0.0415 ± 0.028 | 0 ± 0.059 | -0.0035 ± 0.033 | -0.0095 ± 0.00071 | -0.022 ± 0.04 | 0.034 ± 0.0042 | 0.0295 ± 0.00071 | 0.0135 ± 0.00071 | 0.0025 ± 0.026 | 0.0575 ± 0.074 | 0.034 ± 0.016 | 0.055 ± 0.054 | 0.105 ± 0.027 | 0.0295 ± 0.073
4 | BE3C:tPA | 0.105 ± 0.025 | 0.136 ± 0.024 | -0.0225 ± 0.019 | -0.009 ± 0.045 | 0.0975 ± 0.033 | 0.0065 ± 0.059 | 0.013 ± 0.016 | 0.0405 ± 0.023 | -0.014 ± 0.013 | -0.009 ± 0.013 | -0.0045 ± 0.0064 | -0.006 ± 0.0042 | 0.0075 ± 0.022 | -0.0165 ± 0.029 | 0.023 ± 0.011 | -0.005 ± 0.0057 | -0.0125 ± 0.011 | -0.033 ± 0.011 | -0.008 ± 0.016 | -0.0125 ± 0.023 | 0.005 ± 0.02 | 0.0085 ± 0.028 | 0.008 ± 0.013 | 0.002 ± 0.018 | 0.004 ± 0.035 | 0.011 ± 0.035 | 0.0125 ± 0.073 | -0.004 ± 0.045 | -0.0215 ± 0.042 | 0.022 ± 0.0071 | 0.018 ± 0.011
5 | SAg:CXCL8/IL-8 | 0.051 ± 0.09 | 0.0335 ± 0.019 | -0.0285 ± 0.14 | 0.0115 ± 0.057 | 0.0375 ± 0.042 | 0.0075 ± 0.056 | 0.0095 ± 0.0064 | -0.0015 ± 0.054 | 0.016 ± 0.088 | 0.0615 ± 0.11 | 0.023 ± 0.028 | -0.034 ± 0.035 | 0.0055 ± 0.073 | 0.014 ± 0.054 | 0.0095 ± 0.044 | 0.0405 ± 0.12 | 0.0365 ± 0.042 | -0.0005 ± 0.0035 | -0.121 ± 0.28 | 0.0295 ± 0.1 | 0.0255 ± 0.0035 | 0.011 ± 0.057 | 0.013 ± 0.021 | -0.01 ± 0.011 | -0.0055 ± 0.019 | 0.004 ± 0.045 | -0.0125 ± 0.0078 | -0.0185 ± 0.005 | -0.0015 ± 0.033 | 0.009 ± 0.028 | -0.013 ± 0.011
6 | KF3CT:CXCL9/MIG | 0.0155 ± 0.0064 | 0.009 ± 0.024 | -0.0035 ± 0.0021 | -0.0085 ± 0.011 | 0.0075 ± 0.0021 | 0.0015 ± 0.022 | 0.006 | -0.0085 ± 0.013 | 0.006 ± 0.023 | 0.0105 ± 0.021 | 0.0095 ± 0.013 | 0.0115 ± 0.022 | 0.012 ± 0.014 | 0.006 ± 0.016 | -0.003 ± 0.021 | 0.0035 ± 0.011 | 0.0015 ± 0.0035 | -0.004 | 0.005 ± 0.011 | -0.0085 ± 0.00071 | 0.0045 ± 0.021 | 0.004 ± 0.0014 | -0.0035 ± 0.016 | 0.0085 ± 0.0092 | 0.0045 ± 0.00071 | -0.01 ± 0.025 | 0.002 ± 0.014 | -0.0005 ± 0.012 | 0.0005 ± 0.011 | 0 ± 0.0028 | 0.02 ± 0.02
7 | BT:B cell Proliferation | -0.0245 ± 0.033 | 0.031 ± 0.025 | -0.015 ± 0.03 | -0.0105 ± 0.011 | 0.014 ± 0.0085 | 0.0085 ± 0.03 | -0.0295 ± 0.005 | 0.03 ± 0.0099 | 0 ± 0.04 | -0.016 ± 0.0028 | 0.0135 ± 0.028 | -0.0045 ± 0.005 | 0.019 ± 0.0071 | -0.006 ± 0.0085 | 0.0015 ± 0.035 | -0.0445 ± 0.074 | -0.103 ± 0.023 | -0.144 ± 0.026 | -0.44 ± 0.42 | -0.028 ± 0.018 | 0.0145 ± 0.06 | -0.004 ± 0.014 | 0.013 ± 0.014 | -0.017 ± 0.069 | 0.0135 ± 0.029 | 0.0045 ± 0.015 | 0.0095 ± 0.043 | 0.0085 ± 0.0021 | -0.011 ± 0.0014 | 0.012 ± 0.037 | -0.0015 ± 0.025
